In article PMC5778034 one finds binding data, which are given here for one molecule.

Amino acid sequences for entries named in this document (tags omitted).
UniProt P31749: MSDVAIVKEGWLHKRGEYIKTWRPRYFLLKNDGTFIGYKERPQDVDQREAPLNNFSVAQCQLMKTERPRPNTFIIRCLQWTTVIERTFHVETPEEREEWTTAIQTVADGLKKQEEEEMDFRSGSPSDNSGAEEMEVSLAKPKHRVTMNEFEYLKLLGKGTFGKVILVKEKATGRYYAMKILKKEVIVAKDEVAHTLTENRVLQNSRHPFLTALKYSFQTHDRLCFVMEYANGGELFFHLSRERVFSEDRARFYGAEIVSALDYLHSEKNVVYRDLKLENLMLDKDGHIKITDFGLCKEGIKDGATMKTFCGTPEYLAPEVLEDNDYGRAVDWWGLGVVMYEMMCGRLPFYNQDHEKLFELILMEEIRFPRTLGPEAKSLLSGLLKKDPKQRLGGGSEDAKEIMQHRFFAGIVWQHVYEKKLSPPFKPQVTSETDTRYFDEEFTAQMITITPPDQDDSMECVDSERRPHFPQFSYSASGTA

Results are given in words; binding and its absence hold for the method and conditions named. Binding seen in cells or lysates may run through a third protein. Some entries that bind do so weakly or less than the wild type.

The test addresses Akt1 (PKBα) (human) (UniProt P31749). The test can be described thus: co-IP; asynchronous Akt1-expressing HEK293 cells lysed in IP buffer; affinity purification by the SH tag of Akt1; eluates probed by western blot with antibodies against the partners. A general note: In western blotting, separated proteins are transferred to a membrane and probed.

B1: API5 (protein, UniProt Q9BZZ5 1-524)
chain: MPTVEELYRNYGILADATEQVGQHKDAYQVILDGVKGGTKEKRLAAQFIPKFFKHFPELADSAINAQLDLCEDEDVSIRRQAIKELPQFATGENLPRVADILTQLLQTDDSAEFNLVNNALLSIFKMDAKGTLGGLFSQILQGEDIVRERAIKFLSTKLKTLPDEVLTKEVEELILTESKKVLEDVTGEEFVLFMKILSGLKSLQTVSGRQQLVELVAEQADLEQTFNPSDPDCVDRLLQCTRQAVPLFSKNVHSTRFVTYFCEQVLPNLGTLTTPVEGLDIQLEVLKLLAEMSSFCGDMEKLETNLRKLFDKLLEYMPLPPEEAENGENAGNEEPKLQFSYVECLLYSFHQLGRKLPDFLTAKLNAEKLKDFKIRLQYFARGLQVYIRQLRLALQGKTGEALKTEENKIKVVALKITNNINVLIKDLFHIPPSYKSTVTLSWKPVQKVEIGQKRASEDTTSGSPPKKSSAGPKRDARQIYNPPSGKYSSNLGNFNYEQRGAFRGSRGGRGWGTRGNRSRGRLY
Take B1: the binding result is “binds”.
